# Data from patent US11672864B2, “Nanostructured gels capable of controlled release of encapsulated agents” (The Brigham and Women's Hospital, Inc., priority 2010, dated 2023).
# Where “and” joins values, the source holds several entries; their conditions need not be identical. Equal entries are not always repeated.
# Test: Loading efficiency in self-assembled SMS gels
Compound,Loading efficiency (camptothecin and AGO14699 co-loaded in sorbitan monostearate DMSO gels),"Loading efficiency (SMS 4 % (wt/v) gel in DMSO, camptothecin starting 4 mg)","Loading efficiency (SMS 4 % (wt/v) gel in DMSO, camptothecin starting 4 mg, listed as camptothecin (CPT))","Loading efficiency (SMS 6 % (wt/v) gel in DMSO, camptothecin starting 4 mg)","Loading efficiency (SMS 6 % (wt/v) gel in DMSO, camptothecin starting 4 mg, listed as camptothecin (CPT))","Loading efficiency (SMS 8 % (wt/v) gel in DMSO, camptothecin starting 4 mg)","Loading efficiency (SMS 12 % (wt/v) gel in DMSO, camptothecin starting 4 mg)","Loading efficiency (SMS gels, SMS concentration not stated)","Loading efficiency (camptothecin and AGO14699 co-loaded in sorbitan monostearate DMSO gels, listed as CPT)","Loading efficiency (camptothecin and AGO14699 co-loaded in sorbitan monostearate DMSO gels, listed as Camptothecin (CPT))"
CNCc1ccc(-c2[nH]c3cc(F)cc4c3c2CCNC4=O)cc1 [AGO14699],~15 % (wt/wt) and 15.10 % (wt/wt),,,,,,,,,
CC[C@@]1(O)C(=O)OCc2c1cc1n(c2=O)Cc2cc3ccccc3nc2-1 [Camptothecin],,32.28 % (wt/wt),~30 % (wt/wt),30.02 % (wt/wt),~30 % (wt/wt),18.25 % (wt/wt),12.67 % (wt/wt),30 % (wt/wt),~30 % (wt/wt),30.02 % (wt/wt)
